Laboratory results: PubChem BioAssay AID1053208 (Peter MacCallum Cancer Centre, 2014)
This is a random part of about 17,000 reagents tested. Of all reagents, 788 (4.7%) were called active. 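Calls rest on z-score classes alone; an extra cut-off of viability at most 70% of control was not applied to them.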

Screen: 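Genes whose silencing cuts survival of bone tumour cells only with doxorubicin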 (primary screen)
System: mouse osteosarcoma cells, early-passage culture from an engineered mouse model of fibroblastic bone tumour
Reagent: siRNA pool against mouse genes, 40 nM
Timing: about 120 h (48 h before drug, then 72 h with drug)
Conditions: doxorubicin 100 nM for 72 h, roughly 30-40% inhibitory dose
Read-out: 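Luminescent ATP signal taken as viability with or without 100 nM doxorubicin for 72 h; mean of two wells set against non-targeting siRNA and turned into robust z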
Scale: viability z-score with doxorubicin and doxorubicin viability vs non-targeting: higher = more viable cells under doxorubicin; viability z-score without drug: higher = more viable cells with knock-down alone; z-score of drug to no-drug ratio: higher = less drug sensitisation by knock-down
Active means: 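Called active if knock-down leaves viability unchanged without drug (z within -2 to 2) but lowers it with doxorubicin (z at or under -2)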

gene symbol	combined z-score class	viability z-score with doxorubicin	viability z-score without drug	z-score of drug to no-drug ratio	doxorubicin viability vs non-targeting	call
Cd36 (CD36 molecule)	no change with or without drug	0	-0.34	0.34	0.94	inactive
Sbp (spermine binding protein)	no change with or without drug	1.35	0.17	1.35	1.06	inactive
Nfs1 (nitrogen fixation gene 1 (S. cerevisiae))	no change with or without drug	-0.11	0.17	-0.11	0.93	inactive
Defa31 (defensin, alpha, 31)	high cell count without drug only	1.8	2.19	0.45	1.1	inactive
Tfap2e (transcription factor AP-2, epsilon)	high cell count with doxorubicin only	2.36	0.17	2.47	1.15	inactive
Mbp (myelin basic protein)	high cell count with doxorubicin only	2.36	-0.34	2.92	1.15	inactive
Jak2 (Janus kinase 2)	no change with or without drug	0.79	0.84	0.34	1.01	inactive
Rnd2 (Rho family GTPase 2)	no change with or without drug	-1.35	-0.84	-0.79	0.82	inactive
Glipr1 (GLI pathogenesis related 1)	no change with or without drug	-0.9	-0.51	-0.56	0.86	inactive
Elf3 (E74-like factor 3)	high cell count without drug only	0.11	2.19	-1.12	0.95	inactive
Parg (poly (ADP-ribose) glycohydrolase)	no change with or without drug	-0.34	0.51	-0.56	0.91	inactive
Fgb (fibrinogen beta chain)	no change with or without drug	-1.46	1.35	-2.14	0.81	inactive
Troap (trophinin associated protein)	no change with or without drug	-0.45	0.51	-0.67	0.9	inactive
Tcf20 (transcription factor 20)	no change with or without drug	0.34	1.18	-0.34	0.97	inactive
D130012P04Rik (RIKEN cDNA D130012P04 gene)	no change with or without drug	0.67	-0.84	1.46	1	inactive
Spmap2 (sperm microtubule associated protein 2)	no change with or without drug	-0.67	1.35	-1.46	0.88	inactive
Abca15 (ATP-binding cassette, sub-family A member 15)	no change with or without drug	0.56	0.34	0.45	0.99	inactive
Alas1 (aminolevulinic acid synthase 1)	no change with or without drug	0.22	-1.01	1.12	0.96	inactive
Krtap4-2 (keratin associated protein 4-2)	no change with or without drug	0.11	1.52	-0.79	0.95	inactive
Fgf8 (fibroblast growth factor 8)	no change with or without drug	-0.34	0.67	-0.67	0.91	inactive
Or51f1d (olfactory receptor family 51 subfamily F member 1D)	low cell count with doxorubicin only	-2.25	-1.52	-1.35	0.74	active
Armc10 (armadillo repeat containing 10)	no change with or without drug	0.67	-0.51	1.24	1	inactive
Gpam (glycerol-3-phosphate acyltransferase, mitochondrial)	no change with or without drug	1.24	1.35	0.45	1.05	inactive
Rps24 (ribosomal protein S24)	low cell count with and without drug	-6.41	-6.91	-3.26	0.37	inactive
Cldn10 (claudin 10)	no change with or without drug	0.9	0.17	0.9	1.02	inactive
Kcnj15	no change with or without drug	0.56	-0.17	0.79	0.99	inactive
Or8d4 (olfactory receptor family 8 subfamily D member 4)	no change with or without drug	-0.56	-0.51	-0.11	0.89	inactive
Pstpip1 (proline-serine-threonine phosphatase-interacting protein 1)	no change with or without drug	0.9	0.34	0.79	1.02	inactive
Ube2c (ubiquitin-conjugating enzyme E2C)	no change with or without drug	-1.57	0.51	-1.8	0.8	inactive
Reep4 (receptor accessory protein 4)	no change with or without drug	1.91	0.67	1.57	1.11	inactive
Tmem198b (transmembrane protein 198b)	no change with or without drug	0	-0.17	0.22	0.94	inactive
Gys2 (glycogen synthase 2)	high cell count with doxorubicin only	2.47	1.35	1.69	1.16	inactive
Dlgap2 (DLG associated protein 2)	no change with or without drug	0.34	0.84	-0.11	0.97	inactive
Tex16 (testis expressed gene 16)	no change with or without drug	1.57	0	1.8	1.08	inactive

Records listed so far whose gene name starts with R or r (3):
gene symbol	combined z-score class	viability z-score with doxorubicin	viability z-score without drug	z-score of drug to no-drug ratio	doxorubicin viability vs non-targeting	call
Rnd2 (Rho family GTPase 2)	no change with or without drug	-1.35	-0.84	-0.79	0.82	inactive
Rps24 (ribosomal protein S24)	low cell count with and without drug	-6.41	-6.91	-3.26	0.37	inactive
Reep4 (receptor accessory protein 4)	no change with or without drug	1.91	0.67	1.57	1.11	inactive
